{"source": "PubChem BioAssay AID504786 (Drosophila RNAi Screening Center, 2011)", "assay": "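Positive regulators of HIF-driven reporter output in Drosophila cells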 (primary screen)", "cells": "Drosophila S2 cells with a stable HIF luciferase reporter", "reagent": "long dsRNA against Drosophila genes, about 0.2 µg dsRNA per well of a 384-well plate", "time to read-out": "three days of knock-down, then 20 h of DFO before reading", "conditions": "desferrioxamine (DFO) at 100 µM, an iron chelator that mimics hypoxia, for 20 h", "read-out": "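HIF reporter luminescence in cells given 100 µM DFO for 20 h, using the mouse ldh-a hypoxia-response element, scored as per-plate z-scores; higher means greater loss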", "scale": "z-score: higher = stronger loss of HIF reporter signal", "note": "The deposit covers about 21,000 reagents; below is an unselected part of those with a known target gene and a result. 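Primary screen; positive scores mean lost reporter signal, so the sign may be inverted from the usual convention.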 Further read-outs or replicates are left out here."}
{"gene": "cyst (GeneID 35237)", "dsRNA": "DRSC02023", "z-score, replicate 1": -0.3}
{"gene": "clumsy (GeneID 35394)", "dsRNA": "DRSC03111", "z-score, replicate 1": 0}
{"gene": "CG14853 (GeneID 41771)", "dsRNA": "DRSC14977", "z-score, replicate 1": -0.3}
{"gene": "SCOT (GeneID 38261)", "dsRNA": "DRSC08186", "z-score, replicate 1": -0.2}
{"gene": "Hsp60B (GeneID 48572)", "dsRNA": "DRSC00542", "z-score, replicate 1": -0.3}
{"gene": "nopo (GeneID 37083)", "dsRNA": "DRSC06918", "z-score, replicate 1": -0.3}
{"gene": "CtsF (GeneID 40628)", "dsRNA": "DRSC12056", "z-score, replicate 1": -0.3}
{"gene": "CtsF (GeneID 40628)", "dsRNA": "DRSC12195", "z-score, replicate 1": -0.4}
{"gene": "CtsF (GeneID 40628)", "dsRNA": "DRSC12196", "z-score, replicate 1": 1.3}
{"gene": "TwdlG (GeneID 40535)", "dsRNA": "DRSC12229", "z-score, replicate 1": -0.2}
{"gene": "Taf11 (GeneID 34293)", "dsRNA": "DRSC03448", "z-score, replicate 1": 0.5}
{"gene": "pyr (GeneID 36255)", "dsRNA": "DRSC06319", "z-score, replicate 1": -0.4}
{"gene": "Ide (GeneID 40248)", "dsRNA": "DRSC11867", "z-score, replicate 1": -0.3}
{"gene": "CG15254 (GeneID 34915)", "dsRNA": "DRSC01870", "z-score, replicate 1": -0.4}
{"gene": "CG13252 (GeneID 40289)", "dsRNA": "DRSC11700", "z-score, replicate 1": -0.2}
{"gene": "CG34331 (GeneID 33011)", "dsRNA": "DRSC20679", "z-score, replicate 1": -0.1}
{"gene": "CG8517 (GeneID 37268)", "dsRNA": "DRSC07205", "z-score, replicate 1": -0.1}
{"gene": "beta4GalNAcTB (GeneID 43425)", "dsRNA": "DRSC14869", "z-score, replicate 1": -0.5}
{"gene": "CG18746 (GeneID 59142)", "dsRNA": "DRSC15383", "z-score, replicate 1": -0.3}
{"gene": "Cmpk (GeneID 43165)", "dsRNA": "DRSC16643", "z-score, replicate 1": -0.3}
{"gene": "ND-B8 (GeneID 50178)", "dsRNA": "DRSC00449", "z-score, replicate 1": -0.3}
{"gene": "Tsp42Ee (GeneID 35614)", "dsRNA": "DRSC05947", "z-score, replicate 1": -0.2}
{"gene": "CG11920 (GeneID 43009)", "dsRNA": "DRSC14439", "z-score, replicate 1": 0.3}
{"gene": "Unr (GeneID 38963)", "dsRNA": "DRSC10761", "z-score, replicate 1": -0.1}
{"gene": "Dhx15 (GeneID 35654)", "dsRNA": "DRSC06036", "z-score, replicate 1": 0.8}
{"gene": "CG10737 (GeneID 37202)", "dsRNA": "DRSC05999", "z-score, replicate 1": -0.2}
{"gene": "CG13721 (GeneID 38556)", "dsRNA": "DRSC08330", "z-score, replicate 1": -0.2}

Quoted from above (4 entries):
{"gene": "pyr (GeneID 36255)", "dsRNA": "DRSC06319", "z-score, replicate 1": -0.4}
{"gene": "Ide (GeneID 40248)", "dsRNA": "DRSC11867", "z-score, replicate 1": -0.3}
{"gene": "CG15254 (GeneID 34915)", "dsRNA": "DRSC01870", "z-score, replicate 1": -0.4}
{"gene": "CG13252 (GeneID 40289)", "dsRNA": "DRSC11700", "z-score, replicate 1": -0.2}
